PubChem BioAssay AID1259425 | University of Nebraska Medical Center | 2018
Purpose: 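Compare each knockdown with KSR1 silencing using changes in marker transcripts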 (primary screen). Cell system: HCT116 human colon cancer cells. Knock-down reagent: siRNA pool against human genes, 50 nM siRNA. Measurement: 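mRNA of six signature genes measured together by branched-DNA assay after 50 nM siRNA pool, blank removed, divided by geometric mean of two housekeeping genes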. Direction: BNIP3L mRNA: higher = more BNIP3L transcript after knockdown; NDRG1 mRNA: higher = more NDRG1 transcript after knockdown.
Shown is one part, drawn at random, of about 14,000 reagents tested. Not all columns of the deposit are shown. Reagent sequences are not shown. The record does not give: the time to read-out.

PLEKHA8 gave BNIP3L mRNA, set 1 = 0.093; NDRG1 mRNA, set 1 = 0.6.
Silencing of VGLL1 gave: BNIP3L mRNA, set 1 = 0.12; NDRG1 mRNA, set 1 = 0.475.
Silencing of FASTKD4 came out at: BNIP3L mRNA, set 1 = 0.145; NDRG1 mRNA, set 1 = 0.904.
After knock-down of TNP2, the screen gave BNIP3L mRNA, set 1 = 0.0431; NDRG1 mRNA, set 1 = 0.0853.
With knock-down of HASPIN the results were BNIP3L mRNA, set 1 = 0.083; NDRG1 mRNA, set 1 = 0.344.
BLVRB showed BNIP3L mRNA, set 1 = 0.141; NDRG1 mRNA, set 1 = 0.254.
For DHX38 the deposit lists BNIP3L mRNA, set 1 = 0.0341; NDRG1 mRNA, set 1 = 0.0964.

2 of these entries, set out differently:
{"target gene": "VGLL1", "BNIP3L mRNA, set 1": 0.12, "NDRG1 mRNA, set 1": 0.475}
{"target gene": "FASTKD4", "BNIP3L mRNA, set 1": 0.145, "NDRG1 mRNA, set 1": 0.904}

Further records follow.
For PCP4 the deposit lists BNIP3L mRNA, set 1 = 0.0638; NDRG1 mRNA, set 1 = 0.351.
ZNF16 gave BNIP3L mRNA, set 1 = 0.0787; NDRG1 mRNA, set 1 = 0.356.
Knock-down of MAP3K11 gave: BNIP3L mRNA, set 1 = 0.197; NDRG1 mRNA, set 1 = 1.05.
For TCEAL7 the deposit lists BNIP3L mRNA, set 1 = 0.0786; NDRG1 mRNA, set 1 = 0.149.
GOT1 showed BNIP3L mRNA, set 1 = 0.118; NDRG1 mRNA, set 1 = 0.165.
